In patent US20240398845A1, “USE OF SGLT-2 INHIBITORS FOR THE PREVENTION AND/OR TREATMENT OF CARDIAC DISEASES IN NON-HUMAN MAMMALS EXCLUDING FELINES, IN PARTICULAR CANINES” (BOEHRINGER INGELHEIM VETMEDICA GMBH, priority 2021, published 2024):
No dose or concentration is given here for some results.

System: Beagle dogs with asymptomatic/preclinical ACVIM stage B2 MMVD
Assay: Exploratory laboratory study in dogs with asymptomatic/preclinical myxomatous mitral valve disease (MMVD)
Type: in vivo, dog
Settings: 2 subjects (Azul and Birdie); Day 59
From the text: Echocardiographic findings in dogs with MMVD stage B2 include degenerative valvular changes, increased left atrial dimension (LA/AO-ratio≥1.6), and increased left ventricular end-diastolic dimensions normalized to body weight (LVIDDN≥1.7) (Keene et al., 2019). For evaluation of survival time a severity score (MINE score) based on the echocardiographic variables above, the cardiac contractility (fractional shortening, FS %), and transmitral peak E-wave velocity was initiated (Vezzosi T et al., J Vet Intern Med. 2021, 35(3):1238-1244). The MINE score is associate with the survival time and provides therefore prognostic information. […]
Baseline assessments included body weight measurements, veterinary examinations, echocardiographs, urinalysis, blood collections for hematology, biochemistry, BHB, NT-proBNP, cTnI, and erythropoietin analysis as well as radiographs to assess heart size, pulmonary edema, and congestion. […] General health observations are conducted twice daily, and body weights measured approximately every 3 weeks.
Additionally, the “The Mitral Insufficiency Echocardiographic” score, a severity classification of myxomatous mitral valve disease (MMVD) in dogs (MINE score) was calculated (Vezzosi et al., 2021). […]

N#Cc1ccc([C@@H]2O[C@H](CO)[C@@H](O)[C@H](O)[C@H]2O)cc1Cc1ccc(C2CC2)cc1 [velagliflozin, Velagliflozin]
BHB reduction: 10 ×
